# No constants are given. Whether binding was seen depends on the method and setting. For some assays here: In cells and extracts the contact can be indirect. Some results given as binding are weak or reduced against the parent protein; the word gives no strength. Tags and fused reporters may be left off the sequences shown.
# The chains behind the UniProt entries cited, without tags or fusion partners.
# UniProt Q5QIT3: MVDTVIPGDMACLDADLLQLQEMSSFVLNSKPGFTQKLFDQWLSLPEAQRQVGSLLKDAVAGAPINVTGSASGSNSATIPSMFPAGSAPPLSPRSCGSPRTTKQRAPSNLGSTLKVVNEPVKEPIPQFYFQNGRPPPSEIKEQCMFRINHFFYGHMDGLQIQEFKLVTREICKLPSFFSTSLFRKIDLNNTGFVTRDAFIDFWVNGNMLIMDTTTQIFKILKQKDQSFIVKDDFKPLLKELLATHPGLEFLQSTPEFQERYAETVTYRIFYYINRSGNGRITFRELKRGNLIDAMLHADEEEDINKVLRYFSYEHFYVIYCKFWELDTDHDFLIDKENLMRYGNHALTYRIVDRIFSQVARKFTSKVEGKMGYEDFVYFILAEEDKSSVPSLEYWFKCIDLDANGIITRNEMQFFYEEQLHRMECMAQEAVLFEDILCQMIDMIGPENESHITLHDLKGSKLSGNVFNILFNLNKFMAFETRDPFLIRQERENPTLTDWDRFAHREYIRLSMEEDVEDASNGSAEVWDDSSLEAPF
# UniProt Q9XGR4: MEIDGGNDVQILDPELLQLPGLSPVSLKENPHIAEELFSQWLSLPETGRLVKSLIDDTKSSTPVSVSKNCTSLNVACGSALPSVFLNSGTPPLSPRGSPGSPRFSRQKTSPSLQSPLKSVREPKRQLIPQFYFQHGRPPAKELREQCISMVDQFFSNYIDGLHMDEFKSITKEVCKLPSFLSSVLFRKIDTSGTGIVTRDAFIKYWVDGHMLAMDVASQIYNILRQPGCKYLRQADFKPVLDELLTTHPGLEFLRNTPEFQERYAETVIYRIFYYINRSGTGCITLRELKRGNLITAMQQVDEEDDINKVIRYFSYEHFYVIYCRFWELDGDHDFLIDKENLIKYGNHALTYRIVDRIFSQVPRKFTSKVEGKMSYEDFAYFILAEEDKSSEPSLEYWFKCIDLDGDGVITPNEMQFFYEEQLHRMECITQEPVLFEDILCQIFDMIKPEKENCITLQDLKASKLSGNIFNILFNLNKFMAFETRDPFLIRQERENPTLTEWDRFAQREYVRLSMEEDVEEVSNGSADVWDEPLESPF
# B1: GAL4-activation domain fused to full-length PIF1 (protein, UniProt Q8GZM7 1-478)
# chain: MHHFVPDFDTDDDYVNNHNSSLNHLPRKSITTMGEDDDLMELLWQNGQVVVQNQRLHTKKPSSSPPKLLPSMDPQQQPSSDQNLFIQEDEMTSWLHYPLRDDDFCSDLLFSAAPTATATATVSQVTAARPPVSSTNESRPPVRNFMNFSRLRGDFNNGRGGESGPLLSKAVVRESTQVSPSATPSAAASESGLTRRTDGTDSSAVAGGGAYNRKGKAVAMTAPAIEITGTSSSVVSKSEIEPEKTNVDDRKRKEREATTTDETESRSEETKQARVSTTSTKRSRAAEVHNLSERKRRDRINERMKALQELIPRCNKSDKASMLDEAIEYMKSLQLQIQMMSMGCGMMPMMYPGMQQYMPHMAMGMGMNQPIPPPSFMPFPNMLAAQRPLPTQTHMAGSGPQYPVHASDPSRVFVPNQQYDPTSGQPQYPAGYTDPYQQFRGLHPTQPPQFQNQATSYPSSSRVSSSKESEDHGNHTTG
# B2: GAL4-activation domain fused to full-length PIF5 (protein, UniProt Q84LH8 1-444)
# chain: MEQVFADWNFEDNFHMSTNKRSIRPEDELVELLWRDGQVVLQSQARREPSVQVQTHKQETLRKPNNIFLDNQETVQKPNYAALDDQETVSWIQYPPDDVIDPFESEFSSHFFSSIDHLGGPEKPRTIEETVKHEAQAMAPPKFRSSVITVGPSHCGSNQSTNIHQATTLPVSMSDRSKNVEERLDTSSGGSSGCSYGRNNKETVSGTSVTIDRKRKHVMDADQESVSQSDIGLTSTDDQTMGNKSSQRSGSTRRSRAAEVHNLSERRRRDRINERMKALQELIPHCSRTDKASILDEAIDYLKSLQMQLQVMWMGSGMAAAAAAAASPMMFPGVQSSPYINQMAMQSQMQLSQFPVMNRSAPQNHPGLVCQNPVQLQLQAQNQILSEQLARYMGGIPQMPPAGNQMQTVQQQPADMLGFGSPAGPQSQLSAPATTDSLHMGKIG
# B3: TAP-PIF1 (protein, UniProt Q8GZM7 1-478)
# chain: B1 chain
# B4: PIF5-MYC (protein, UniProt Q84LH8 1-444)
# chain: B2 chain
# Columns and labels:
# [1] = molecular target: B’’β-GAL4-DNA binding domain fusion (Arabidopsis thaliana) (UniProt Q5QIT3); test: two-hybrid
# [2] = molecular target: B’’α-GAL4-DNA binding domain fusion (Arabidopsis thaliana) (UniProt Q9XGR4); test: two-hybrid
# [3] = molecular target: MBP-B’’β (Arabidopsis thaliana) (UniProt Q5QIT3); test: pull-down
# [4] = molecular target: MBP-B’’α (Arabidopsis thaliana) (UniProt Q9XGR4); test: pull-down
Binder,binding [1],binding [2],binding [3],binding [4]
B1,binds,binds,–,–
B2,binds,binds,–,–
B3,–,–,binds,binds
B4,–,–,binds,binds
